From the supplement of paper PMC8256030
Several values for one entry are separate records, joined by “and”; a condition that tells them apart may be missing. Identical values can stand only once. Some of the results follow. This data set is noisy: repeats of one test often differ as much as different tests do.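 HEK293T cells were given each compound shortly before transfection with a reporter in which red mCherry is followed by the SARS-CoV-2 frameshift element and then GFP in the −1 frame, so GFP appears only after frameshifting.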

system: HEK293T; experiment: percent viability (nuclei count) relative to control; higher = more viable cells; conditions: 10 µM; 24 h

Row | SMILES | percent viability
1 | CC(C)(S)[C@@H](N)C(=O)O [penicillamine] | 100%
2 | Cc1nc(Nc2ncc(C(=O)Nc3c(C)cccc3Cl)s2)cc(N2CCN(CCO)CC2)n1 [dasatinib] | 8.12%
3 | COc1cc(O)cc(O)c1 [flamenol] | 170%
4 | CCN(CC)C(=O)/C(C#N)=C/c1cc(O)c(O)c([N+](=O)[O-])c1 [entacapone] | 141% and 295% and 205%
5 | NC(=O)NC(=O)Cc1ccccc1 [phenacemide] | 318%
6 | CC[N+](CC)(CC(=O)Nc1c(C)cccc1C)Cc1ccccc1 [denatonium benzoate] | 241%
7 | Cc1cccc(C)c1NC(=O)C1CCCCN1C (stereo not given) [mepivacaine] | 192%
8 | CN(C)C(=O)N[C@H]1CC[C@H](CCN2CCN(c3cccc(Cl)c3Cl)CC2)CC1 [Cariprazine] | 239%
9 | CCC(C)C(CC)C(N)=O (stereo not given) [valnoctamide] | 62.8%
10 | O=C([O-])C(O)C(O)C(O)C(O)C(O)CO.[Na+] (stereo not given) | 224%
11 | O=C(C1CCCCC1)N1CC(=O)N2CCc3ccccc3C2C1 (stereo not given) [praziquantel] | 234% and 167%
12 | COc1cc(OC)nc(O[C@H](C(=O)O)C(OC)(c2ccccc2)c2ccccc2)n1 [darusentan] | 207%
13 | CC(N)C12CC3CC(CC(C3)C1)C2 (stereo not given) [rimantadine] | 236%
14 | CC(C)c1nc(N(C)S(C)(=O)=O)nc(-c2ccc(F)cc2)c1/C=C/[C@@H](O)C[C@@H](O)CC(=O)O [rosuvastatin] | 173%
15 | CC1(C)C[C@@H]1C(=O)N/C(=C\CCCCSC[C@H](N)C(=O)O)C(=O)O [cilastatin] | 162%
16 | CC(C)CCC[C@@H](C)[C@H]1CC(=O)C2=C3CC[C@H]4C[C@@H](O)CC[C@]4(C)[C@H]3CC[C@@]21C [colestolone] | 358%
17 | CNCC[C@@H](Oc1ccccc1C)c1ccccc1 [Atomoxetine, Strattera,Tomoxetin] | 401%
18 | CN(Cc1cnc2nc(N)nc(N)c2n1)c1ccc(C(=O)NC(CCC(=O)O)C(=O)O)cc1 (stereo not given) | 315%
19 | CCN[C@@H]1C[C@H](N)[C@@H](O[C@H]2OC(CN)=CC[C@H]2N)[C@H](O)[C@H]1O[C@H]1OC[C@](C)(O)[C@H](NC)[C@H]1O | 188%
20 | O=C(Nc1cccc2c(=O)cc(-c3nnn[nH]3)oc12)c1ccc(OCCCCc2ccccc2)cc1 [pranlukast] | 154%

Row | SMILES | percent viability
21 | CCOC(=O)[C@H](CCc1ccccc1)N[C@@H](C)C(=O)N1Cc2cc(OC)c(OC)cc2C[C@H]1C(=O)O [moexipril] | 58.6%
22 | CCCC(=O)N1CCCN(c2nc(N)c3cc(OC)c(OC)cc3n2)CC1 [bunazosin] | 180%
23 | CC(=O)c1cc2cccc(OCC(O)CNC(C)C)c2o1 (stereo not given) [befunolol] | 349%
24 | CCCCCN(C)CCC(O)(P(=O)(O)O)P(=O)(O)O [ibandronic acid] | 172%
25 | Cc1ccc(S(=O)(=O)NC(=O)NC2CCCC2)cc1 [tolpentamide] | 185%
26 | CN(C)CCn1nnnc1SCC1=C(C(=O)O)N2C(=O)[C@@H](NC(=O)Cc3csc(N)n3)[C@H]2SC1 [Pansporin] | 270%
27 | CC(C(=O)O)c1ccc2c(c1)CC(C(C)C)C2 (stereo not given) [isoprofen] | 178%
28 | N[C@@H](Cc1c[nH]cn1)C(=O)O [histidine] | 41.7%
29 | NS(=O)(=O)c1ccc(NC(=O)CCC(=O)O)cc1 [sulfasuccinamide] | 178%
30 | CC(C)[C@@H](C)/C=C/[C@@H](C)[C@H]1CC[C@H]2/C(=C/C=C3\C[C@@H](O)CC[C@@H]3C)CCC[C@]12C [dihydrotachysterol] | 136%
31 | O=C(O)CCCN1CCC(O[C@@H](c2ccc(Cl)cc2)c2ccccn2)CC1 [Bepreve] | 216%
32 | CCOC(=O)Nc1nc2ccccc2[nH]1 [lobendazole] | 308%
33 | CC(C)(Oc1ccc(Cl)cc1)C(=O)O [Clofibric acid] | 120%
34 | O=c1[nH]c2ccccc2c(=O)n1CCCN1CCN(c2ccccc2)CC1 [pelanserin] | 174%
35 | CC(=O)Nc1c(I)c(C(=O)N[C@H]2C(O)O[C@H](CO)[C@@H](O)[C@@H]2O)c(I)c(N(C)C(C)=O)c1I (stereo not given in full) [Amipaque] | 197% and 220%
36 | CO/N=C(\C(=O)N[C@@H]1C(=O)N2C(C(=O)O)=C(C[N+]3(C)CCCC3)CS[C@H]12)c1csc(N)n1 [Maxipeme] | 247%
37 | CC1(C)S[C@@H]2[C@H](NC(=O)[C@H](N)c3ccccc3)C(=O)N2[C@H]1C(=O)O [Ampicillin] | 85.2%
38 | CS(=O)(=O)c1ccc(-c2cn3ccccc3n2)cc1 [zolimidine] | 170%
39 | COC(=O)CCc1ccc(OCC(O)CNC(C)C)cc1 (stereo not given) [esmolol] | 130%
40 | CCC(c1ccc(O)cc1)C(CC)C(C)c1ccc(O)cc1 (stereo not given) [benzestrol] | 227%
